The target in this assay is T1, FLAG-Sec24D (human) (UniProt O94855).
T1 sequence: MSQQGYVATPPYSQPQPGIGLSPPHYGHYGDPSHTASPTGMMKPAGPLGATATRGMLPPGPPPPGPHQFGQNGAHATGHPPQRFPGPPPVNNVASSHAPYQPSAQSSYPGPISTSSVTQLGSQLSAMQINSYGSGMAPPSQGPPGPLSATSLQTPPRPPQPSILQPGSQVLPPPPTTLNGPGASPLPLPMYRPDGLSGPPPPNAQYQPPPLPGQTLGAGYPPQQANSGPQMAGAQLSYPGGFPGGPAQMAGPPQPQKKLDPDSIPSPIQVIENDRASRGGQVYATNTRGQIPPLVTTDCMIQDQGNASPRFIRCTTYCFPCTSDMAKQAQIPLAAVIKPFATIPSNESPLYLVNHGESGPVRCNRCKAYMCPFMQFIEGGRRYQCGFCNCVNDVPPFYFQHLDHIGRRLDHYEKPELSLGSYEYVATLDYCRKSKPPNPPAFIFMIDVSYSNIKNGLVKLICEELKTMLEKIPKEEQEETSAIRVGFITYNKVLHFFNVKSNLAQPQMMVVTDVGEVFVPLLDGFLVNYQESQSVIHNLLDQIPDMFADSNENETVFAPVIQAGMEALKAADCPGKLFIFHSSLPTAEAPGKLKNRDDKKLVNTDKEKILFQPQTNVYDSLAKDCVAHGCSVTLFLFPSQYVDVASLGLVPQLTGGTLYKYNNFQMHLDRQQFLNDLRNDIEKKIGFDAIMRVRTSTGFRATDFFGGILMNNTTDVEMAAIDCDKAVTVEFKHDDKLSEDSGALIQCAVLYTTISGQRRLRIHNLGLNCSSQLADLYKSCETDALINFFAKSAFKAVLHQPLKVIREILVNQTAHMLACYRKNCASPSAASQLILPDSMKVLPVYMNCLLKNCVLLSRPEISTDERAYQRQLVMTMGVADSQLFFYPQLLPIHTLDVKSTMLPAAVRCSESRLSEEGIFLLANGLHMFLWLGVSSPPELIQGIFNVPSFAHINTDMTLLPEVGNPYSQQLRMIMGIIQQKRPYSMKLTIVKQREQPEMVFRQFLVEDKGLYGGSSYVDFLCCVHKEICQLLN
Put plainly: pull-down.

No constants are given. Whether binding was seen depends on the method and setting. Sequences can lack the tags named with a protein.

In publication doi:10.1101/452904 (bioRxiv, 2018) one finds binding data, which are given here for one substance.

As to “GST-tagged cTAGE5-PRD (651–804aa)-His6 wild-type (human) (domain or fragment)”, the binding entry is “no binding”.
